The other results are listed elsewhere or left out. Many values rest on one well or one pass, so single values are uncertain.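 Imaging used 1,536-well plates; nuclei positive for cleaved PARP by antibody were divided by total DNA-stained nuclei to yield the apoptosis fraction. Doses for screening kept most cells viable, and cell lines differ markedly in resting and induced cleaved-PARP levels.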
Tested on: SkMel30
Test: cleaved PARP positive nuclei fraction relative to DMSO control; melanoma cells; higher = more apoptosis
Conditions: library dose: low library concentration; 72 h

SMILES	cleaved PARP positive nuclei fraction
CS(=O)(=O)c1ccc(C(=O)Nc2ccc(Cl)c(-c3ccccn3)c2)c(Cl)c1 [vismodegib] + CC1(C)NC(=O)N(c2ccc([N+](=O)[O-])c(C(F)(F)F)c2)C1=O [nilutamide] (first compound 1 µM, partner dose 1 µM)	66.9%
CCN(CC)CCNC(=O)c1c(C)[nH]c(/C=C2\C(=O)Nc3ccc(F)cc32)c1C [sunitinib] + COCC[n+]1c2c(n(Cc3cnccn3)c1C)C(=O)c1ccccc1C2=O [YM155] (first compound 0.4 µM, partner dose 0.0004 µM)	85.1%
NC1(c2ccc(-c3nc4ccn5c(=O)[nH]nc5c4cc3-c3ccccc3)cc2)CCC1 + Nc1ncn([C@H]2C[C@H](O)[C@@H](CO)O2)c(=O)n1 [decitabine] (first compound 0.4 µM, partner dose 0.1 µM)	68.7%

Tested on: SkMel5
Test: as above
Conditions: library dose: low library concentration; 72 h

SMILES	cleaved PARP positive nuclei fraction
C[C@@H](N)c1ccc(C(=O)Nc2ccnc3[nH]ccc23)cc1 + CC(C)(C)c1cnc(CSc2cnc(NC(=O)C3CCNCC3)s2)o1 [SNS-032] (first compound 0.4 µM, partner dose 0.01 µM)	23.9%
CC1(C)CCC(c2ccc(Cl)cc2)=C(CN2CCN(c3ccc(C(=O)NS(=O)(=O)c4ccc(N[C@H](CCN5CCOCC5)CSc5ccccc5)c(S(=O)(=O)C(F)(F)F)c4)cc3)CC2)C1 + Cc1cc(N2CCOCC2)cc2[nH]c(-c3c(NC[C@@H](O)c4cccc(Cl)c4)cc[nH]c3=O)nc12 [BMS536924] (first compound 0.4 µM, partner dose 0.2 µM)	397%
Cn1sc(=O)n(Cc2ccccc2)c1=O + Cc1cc([N+](=O)[O-])ccc1NS(=O)(=O)c1cc(Cl)ccc1Cl [FH535] (first compound 0.4 µM, partner dose 1 µM)	90.4%
C[C@@H](N)c1ccc(C(=O)Nc2ccnc3[nH]ccc23)cc1 + Cc1cc(N2CCOCC2)cc2[nH]c(-c3c(NC[C@@H](O)c4cccc(Cl)c4)cc[nH]c3=O)nc12 [BMS536924] (first compound 0.4 µM, partner dose 0.2 µM)	184%
CCCCCCCCc1ccc(CCC(N)(CO)CO)cc1 [fingolimod] + C=CCn1c(=O)c2cnc(Nc3ccc(N4CCN(C)CC4)cc3)nc2n1-c1cccc(C(C)(C)O)n1 [MK1775] (first compound 2 µM, partner dose 0.02 µM)	117%
CC(=O)O[C@@]12CO[C@@H]1C[C@H](O)[C@@]1(C)C(=O)[C@H](O)C3=C(C)[C@@H](OC(=O)[C@H](O)[C@@H](NC(=O)OC(C)(C)C)c4ccccc4)C[C@@](O)([C@@H](OC(=O)c4ccccc4)[C@H]21)C3(C)C [Docetaxel] + CCc1ccc(CCOc2ccc(CC3SC(=O)NC3=O)cc2)nc1 [pioglitazone] (first compound 0.0001 µM, partner dose 2 µM)	450%
NC1(c2ccc(-c3nc4ccn5c(=O)[nH]nc5c4cc3-c3ccccc3)cc2)CCC1 + c1cc(-c2cnn3cc(-c4ccc(OCCN5CCCCC5)cc4)cnc23)ccn1 [Dorsomorphin] (first compound 0.4 µM, partner dose 0.4 µM)	91.5%
C[C@]1(O)C[C@@H](c2nc(-c3ccc4ccc(-c5ccccc5)nc4c3)c3c(N)nccn32)C1 + C=CCn1c(=O)c2cnc(Nc3ccc(N4CCN(C)CC4)cc3)nc2n1-c1cccc(C(C)(C)O)n1 [MK1775] (first compound 0.4 µM, partner dose 0.02 µM)	79.8%
CN(c1ncccc1CNc1nc(Nc2ccc3c(c2)CC(=O)N3)ncc1C(F)(F)F)S(C)(=O)=O + Oc1cc(-c2nc(-c3ccccc3)[nH]c2-c2ccncc2)ccc1Cl [L779450] (first compound 0.08 µM, partner dose 0.2 µM)	92%
CCCCCCCCc1ccc(CCC(N)(CO)CO)cc1 [fingolimod] + c1cc(-c2cnn3cc(-c4ccc(OCCN5CCCCC5)cc4)cnc23)ccn1 [Dorsomorphin] (first compound 2 µM, partner dose 0.4 µM)	42%
CC(=O)O[C@@]12CO[C@@H]1C[C@H](O)[C@@]1(C)C(=O)[C@H](O)C3=C(C)[C@@H](OC(=O)[C@H](O)[C@@H](NC(=O)OC(C)(C)C)c4ccccc4)C[C@@](O)([C@@H](OC(=O)c4ccccc4)[C@H]21)C3(C)C [Docetaxel] + COc1cc(Nc2ncc(F)c(Nc3ccc4c(n3)NC(=O)C(C)(C)O4)n2)cc(OC)c1OC [Tamatinib] (first compound 0.0001 µM, partner dose 0.4 µM)	90.8%
CS(=O)(=O)c1ccc(C(=O)Nc2ccc(Cl)c(-c3ccccn3)c2)c(Cl)c1 [vismodegib] + CC1(C)NC(=O)N(c2ccc([N+](=O)[O-])c(C(F)(F)F)c2)C1=O [nilutamide] (first compound 1 µM, partner dose 1 µM)	250%

From the supplement of paper PMC4604168 (melanoma cell lines)
